Laboratory results as given in patent US20260151384A1, “ISOQUINOLINE DERIVATIVES AS PROTEIN DEGRADERS, E7 DEGRADERS, ANTIVIRALS, TUMOR THERAPEUTICS AND IMMUNE SUPPRESSIVES” (priority 2022, published 2026).
At least one compound was matched to its structure with a doubt left.

Sequences of proteins named here, by UniProt entry; tags and fusion partners are left off. A change or cut given only in a name is not applied to a line headed by its entry.
UniProt P03129: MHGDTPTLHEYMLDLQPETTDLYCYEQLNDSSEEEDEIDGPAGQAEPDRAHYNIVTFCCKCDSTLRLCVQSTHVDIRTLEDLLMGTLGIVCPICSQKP

Target: HPV16 E7 protein (Human papillomavirus type 16, UniProt P03129)
Assay: Western blot of E7 steady state level in CaSki cells
Assay type: cell-based
Details: 4 hours, 100 nM
Procedure: Reagents for Extract preparation and Western Blotting: Extraction Buffer: 2.5× (Tris 0.25M pH6.8, Glycerol 50%, SDS 10%), Gels: 4-12% gradient gels (Bolt® 4-12% Bis-Tris Plus Gel). MES Buffer: 50 mM MES, 50 mM Tris Base, 0.1% SDS, 1 mM EDTA, pH 7.3, Blotting membrane: Nitrocelulose 0.2 μm (Whatman Protran #10401394), 3MM filter paper (e.g. Whatman 3MM Chr, #3030917). Western Detection Reagents: WB Wash Buffer 1× (TBET): 20 mM Tris, 150 mM NaCl, 0.125% Tween20, pH 7.8; skim-milk powder (less than 0.15% fat content). Phosphate buffered saline (PBS) 1×: prepared as 1 L add 8 g sodium chloride (NaCl), 0.2 g potassium chloride (KCl), 1.44 g sodium phosphate, dibasic (Na2HPO4) and 0.24 g potassium phosphate, monobasic (KH2PO4) to 1 L dH2O, pH adjusted to 7.2.
B) For cells in cell culture the following procedure for the preparation of a total cell extract is used. Freshly seeded cells are grown for 24 hours to obtain 65-75% confluency (corresponds for CaSki cells to a plating of approx. 2×10^6 cells/10 cm Ø cell culture dish). Cell culture dishes with medium are out on ice for 5 minutes. […]
Dilute secondary anti-mouse HRP antibody in WB Blocking Buffer according to manufacturer instruction (e.g. CST Anti mouse IgG HRP-linked Ab, #7076, 1:3000). […] The membranes are developed using standard chemo luminescence (ECL) detection systems following imaging with Licor or Viber devices. […]

With `CO[C@H]1C[C@@H]2CC[C@@H](C)[C@@](O)(O2)C(=O)C(=O)N2CCCC[C@H]2C(=O)O[C@H]([C@H](C)C[C@@H]2CC[C@@H](O)[C@H](OC)C2)CC(=O)[C@H](C)/C=C(\C)[C@@H](O)[C@@H](OC)C(=O)[C@H](C)C[C@H](C)/C=C/C=C/C=C/1C` [Rapamycin, reference compound] the “E7 protein level (western blot), Test 5” value was “lead to degradation of E7 proteins”.
